Data published in paper PMC11574364.

Chains of the proteins cited; added tags and fusions are not shown. Lines headed by an entry give the natural chain unless they say otherwise; changes in a name come on top.
UniProt Q8N6Q1: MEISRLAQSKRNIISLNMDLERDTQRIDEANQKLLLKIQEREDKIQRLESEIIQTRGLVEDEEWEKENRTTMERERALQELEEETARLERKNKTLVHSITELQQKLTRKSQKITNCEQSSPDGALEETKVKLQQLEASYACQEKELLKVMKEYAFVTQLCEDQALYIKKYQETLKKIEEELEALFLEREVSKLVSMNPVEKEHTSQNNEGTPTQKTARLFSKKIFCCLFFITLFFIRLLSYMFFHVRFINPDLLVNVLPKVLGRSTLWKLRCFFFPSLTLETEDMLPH
UniProt Q9Y4B6: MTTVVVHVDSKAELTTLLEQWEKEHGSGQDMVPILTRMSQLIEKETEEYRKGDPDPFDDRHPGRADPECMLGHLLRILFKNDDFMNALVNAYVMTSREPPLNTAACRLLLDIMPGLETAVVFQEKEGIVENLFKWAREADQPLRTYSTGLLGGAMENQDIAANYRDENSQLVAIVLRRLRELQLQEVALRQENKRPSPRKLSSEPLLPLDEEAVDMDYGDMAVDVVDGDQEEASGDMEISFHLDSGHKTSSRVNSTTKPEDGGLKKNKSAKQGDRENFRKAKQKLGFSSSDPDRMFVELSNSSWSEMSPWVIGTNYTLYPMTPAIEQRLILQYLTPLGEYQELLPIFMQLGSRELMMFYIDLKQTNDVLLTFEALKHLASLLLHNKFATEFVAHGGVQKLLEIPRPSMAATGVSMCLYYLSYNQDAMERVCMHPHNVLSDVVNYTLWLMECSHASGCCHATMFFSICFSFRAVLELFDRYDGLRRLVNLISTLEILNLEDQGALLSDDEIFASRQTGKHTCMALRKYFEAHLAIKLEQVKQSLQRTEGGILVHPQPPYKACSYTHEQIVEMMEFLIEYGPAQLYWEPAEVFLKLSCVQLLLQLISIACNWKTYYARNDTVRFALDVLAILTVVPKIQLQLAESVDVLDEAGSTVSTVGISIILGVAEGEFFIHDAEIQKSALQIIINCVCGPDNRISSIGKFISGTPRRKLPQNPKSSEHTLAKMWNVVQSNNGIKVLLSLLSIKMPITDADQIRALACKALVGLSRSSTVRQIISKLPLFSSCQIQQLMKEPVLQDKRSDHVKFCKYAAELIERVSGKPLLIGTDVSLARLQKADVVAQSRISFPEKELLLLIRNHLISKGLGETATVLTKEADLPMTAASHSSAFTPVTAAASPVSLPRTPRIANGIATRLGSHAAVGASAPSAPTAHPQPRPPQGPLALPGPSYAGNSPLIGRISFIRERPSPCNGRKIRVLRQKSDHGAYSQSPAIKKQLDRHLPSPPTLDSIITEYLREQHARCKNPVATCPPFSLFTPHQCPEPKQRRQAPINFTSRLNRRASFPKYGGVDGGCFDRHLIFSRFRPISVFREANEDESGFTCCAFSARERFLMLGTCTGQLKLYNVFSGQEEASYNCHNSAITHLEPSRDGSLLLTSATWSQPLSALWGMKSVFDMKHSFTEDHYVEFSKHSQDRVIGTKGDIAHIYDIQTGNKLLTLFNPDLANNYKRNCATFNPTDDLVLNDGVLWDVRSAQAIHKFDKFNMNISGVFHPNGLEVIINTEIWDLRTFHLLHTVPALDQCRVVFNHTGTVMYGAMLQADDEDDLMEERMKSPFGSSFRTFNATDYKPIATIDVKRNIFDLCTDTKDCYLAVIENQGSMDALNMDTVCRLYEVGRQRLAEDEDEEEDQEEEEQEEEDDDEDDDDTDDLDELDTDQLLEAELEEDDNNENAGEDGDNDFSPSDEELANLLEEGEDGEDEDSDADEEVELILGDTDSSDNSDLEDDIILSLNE
UniProt Q96IT1: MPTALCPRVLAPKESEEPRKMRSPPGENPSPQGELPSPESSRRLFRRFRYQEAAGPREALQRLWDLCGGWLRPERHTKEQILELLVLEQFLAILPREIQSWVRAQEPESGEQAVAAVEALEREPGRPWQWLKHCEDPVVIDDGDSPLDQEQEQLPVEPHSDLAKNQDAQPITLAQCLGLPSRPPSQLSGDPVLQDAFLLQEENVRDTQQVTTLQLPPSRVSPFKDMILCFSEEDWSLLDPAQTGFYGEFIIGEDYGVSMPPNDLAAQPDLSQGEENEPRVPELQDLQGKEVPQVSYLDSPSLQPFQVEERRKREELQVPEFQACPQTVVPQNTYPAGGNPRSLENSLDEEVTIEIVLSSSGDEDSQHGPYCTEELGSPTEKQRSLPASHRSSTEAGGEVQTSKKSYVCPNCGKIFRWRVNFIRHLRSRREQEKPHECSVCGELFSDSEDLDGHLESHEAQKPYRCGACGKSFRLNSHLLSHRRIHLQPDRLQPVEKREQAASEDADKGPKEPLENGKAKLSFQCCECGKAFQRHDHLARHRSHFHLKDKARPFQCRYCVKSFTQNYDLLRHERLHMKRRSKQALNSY
UniProt Q9Y698: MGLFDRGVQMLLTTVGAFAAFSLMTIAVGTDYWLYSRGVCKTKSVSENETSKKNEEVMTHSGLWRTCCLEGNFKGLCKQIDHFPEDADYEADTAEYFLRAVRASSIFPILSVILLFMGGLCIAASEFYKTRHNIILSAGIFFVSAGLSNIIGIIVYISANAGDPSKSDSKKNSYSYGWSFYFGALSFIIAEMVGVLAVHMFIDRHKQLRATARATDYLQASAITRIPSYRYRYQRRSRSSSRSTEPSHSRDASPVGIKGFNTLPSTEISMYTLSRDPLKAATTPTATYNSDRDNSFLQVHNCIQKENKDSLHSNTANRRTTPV
UniProt Q96RR4: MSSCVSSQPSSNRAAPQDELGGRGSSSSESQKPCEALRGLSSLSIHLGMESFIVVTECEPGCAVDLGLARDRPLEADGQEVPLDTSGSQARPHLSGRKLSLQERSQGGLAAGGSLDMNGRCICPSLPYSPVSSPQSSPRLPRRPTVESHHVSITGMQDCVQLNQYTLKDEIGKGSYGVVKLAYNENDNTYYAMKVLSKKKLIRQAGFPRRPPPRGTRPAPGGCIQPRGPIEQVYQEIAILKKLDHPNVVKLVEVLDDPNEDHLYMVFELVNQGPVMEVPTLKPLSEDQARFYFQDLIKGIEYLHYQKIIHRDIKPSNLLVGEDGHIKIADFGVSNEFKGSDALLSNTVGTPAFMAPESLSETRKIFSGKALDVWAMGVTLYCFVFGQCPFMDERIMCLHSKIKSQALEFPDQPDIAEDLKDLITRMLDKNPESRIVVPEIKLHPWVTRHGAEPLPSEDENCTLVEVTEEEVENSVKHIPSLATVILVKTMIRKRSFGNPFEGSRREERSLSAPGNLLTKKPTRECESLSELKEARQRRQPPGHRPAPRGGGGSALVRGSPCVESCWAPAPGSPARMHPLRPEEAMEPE

Legend:
Experiment in all cases: human ORF protein microarray
DNASE1L1 (Homo sapiens) = biological target: T1, DNASE1L1 (Homo sapiens) (UniProt P49184); settings: 5' phosphate; Domain array: 20 mM Tris-HCl pH 7.4, 200 mM KCl, 0.2 mM EDTA, 0.05% NP40, 2 ug/ul heparin, overnight 4 C. ORF array: PBS pH 7.0 with RNase inhibitor, 100 ng RNA, 1 h.; recombinant protein; protein details: N-terminal GST-6xHis; label: internal DY647 at G18; letters put together from the description
T1 sequence (looked up, limits assumed): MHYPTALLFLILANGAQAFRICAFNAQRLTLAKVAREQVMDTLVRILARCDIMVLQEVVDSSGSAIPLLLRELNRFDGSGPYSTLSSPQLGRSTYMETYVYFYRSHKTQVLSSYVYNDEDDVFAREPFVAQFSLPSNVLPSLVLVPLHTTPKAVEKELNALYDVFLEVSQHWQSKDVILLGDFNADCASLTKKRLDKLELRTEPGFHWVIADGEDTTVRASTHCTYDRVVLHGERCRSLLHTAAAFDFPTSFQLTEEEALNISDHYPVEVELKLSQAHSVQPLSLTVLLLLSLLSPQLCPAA

TMCO5 (Homo sapiens) = TMCO5 (Homo sapiens) (UniProt Q8N6Q1); settings: 5' phosphate; Domain array: 20 mM Tris-HCl pH 7.4, 200 mM KCl, 0.2 mM EDTA, 0.05% NP40, 2 ug/ul heparin, overnight 4 C. ORF array: PBS pH 7.0 with RNase inhibitor, 100 ng RNA, 1 h.; recombinant protein; protein details: N-terminal GST-6xHis; label: internal DY647 at G18; letters put together from the description
HDHD2 (Homo sapiens) = biological target: T2, HDHD2 (Homo sapiens) (UniProt Q9H0R4); settings: 5' phosphate; Domain array: 20 mM Tris-HCl pH 7.4, 200 mM KCl, 0.2 mM EDTA, 0.05% NP40, 2 ug/ul heparin, overnight 4 C. ORF array: PBS pH 7.0 with RNase inhibitor, 100 ng RNA, 1 h.; recombinant protein; protein details: N-terminal GST-6xHis; label: internal DY647 at G18; letters put together from the description
T2 sequence (looked up, limits assumed): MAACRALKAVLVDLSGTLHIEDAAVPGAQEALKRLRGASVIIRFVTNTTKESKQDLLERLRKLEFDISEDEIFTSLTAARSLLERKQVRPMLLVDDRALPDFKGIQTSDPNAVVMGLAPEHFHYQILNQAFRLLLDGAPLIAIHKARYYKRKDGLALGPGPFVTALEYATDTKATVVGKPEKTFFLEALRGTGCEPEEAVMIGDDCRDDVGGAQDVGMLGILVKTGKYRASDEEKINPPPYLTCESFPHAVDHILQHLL

KLHDC3 (Homo sapiens) = biological target: T3, KLHDC3 (Homo sapiens) (UniProt Q9BQ90); settings: 5' phosphate; Domain array: 20 mM Tris-HCl pH 7.4, 200 mM KCl, 0.2 mM EDTA, 0.05% NP40, 2 ug/ul heparin, overnight 4 C. ORF array: PBS pH 7.0 with RNase inhibitor, 100 ng RNA, 1 h.; recombinant protein; protein details: N-terminal GST-6xHis; label: internal DY647 at G18; letters put together from the description
T3 sequence (looked up, limits assumed): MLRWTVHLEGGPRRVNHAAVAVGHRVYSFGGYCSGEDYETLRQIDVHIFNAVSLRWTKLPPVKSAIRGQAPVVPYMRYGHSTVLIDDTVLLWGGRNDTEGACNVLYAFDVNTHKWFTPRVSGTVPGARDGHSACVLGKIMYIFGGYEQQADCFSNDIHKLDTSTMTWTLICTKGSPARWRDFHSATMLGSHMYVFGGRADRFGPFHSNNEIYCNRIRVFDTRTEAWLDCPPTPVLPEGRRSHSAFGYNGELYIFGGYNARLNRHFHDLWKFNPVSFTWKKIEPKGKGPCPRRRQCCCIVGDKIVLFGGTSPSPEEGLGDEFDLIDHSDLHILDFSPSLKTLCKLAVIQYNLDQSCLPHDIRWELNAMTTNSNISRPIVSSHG

VPRBP (Homo sapiens) = VPRBP (Homo sapiens) (UniProt Q9Y4B6); settings: 5' phosphate; Domain array: 20 mM Tris-HCl pH 7.4, 200 mM KCl, 0.2 mM EDTA, 0.05% NP40, 2 ug/ul heparin, overnight 4 C. ORF array: PBS pH 7.0 with RNase inhibitor, 100 ng RNA, 1 h.; recombinant protein; protein details: N-terminal GST-6xHis; label: internal DY647 at G18; letters put together from the description
ZNF496 (Homo sapiens) = ZNF496 (Homo sapiens) (UniProt Q96IT1); settings: 5' phosphate; Domain array: 20 mM Tris-HCl pH 7.4, 200 mM KCl, 0.2 mM EDTA, 0.05% NP40, 2 ug/ul heparin, overnight 4 C. ORF array: PBS pH 7.0 with RNase inhibitor, 100 ng RNA, 1 h.; recombinant protein; protein details: N-terminal GST-6xHis; label: internal DY647 at G18; letters put together from the description
ARHGAP28 (Homo sapiens) = biological target: T4, ARHGAP28 (Homo sapiens) (UniProt Q9P2N2); settings: 5' phosphate; amino-C6 U at position 18; Domain array: 20 mM Tris-HCl pH 7.4, 200 mM KCl, 0.2 mM EDTA, 0.05% NP40, 2 ug/ul heparin, overnight 4 C. ORF array: PBS pH 7.0 with RNase inhibitor, 100 ng RNA, 1 h.; recombinant protein; protein details: N-terminal GST-6xHis; label: internal Cy5 or DY647
T4 sequence (looked up, limits assumed): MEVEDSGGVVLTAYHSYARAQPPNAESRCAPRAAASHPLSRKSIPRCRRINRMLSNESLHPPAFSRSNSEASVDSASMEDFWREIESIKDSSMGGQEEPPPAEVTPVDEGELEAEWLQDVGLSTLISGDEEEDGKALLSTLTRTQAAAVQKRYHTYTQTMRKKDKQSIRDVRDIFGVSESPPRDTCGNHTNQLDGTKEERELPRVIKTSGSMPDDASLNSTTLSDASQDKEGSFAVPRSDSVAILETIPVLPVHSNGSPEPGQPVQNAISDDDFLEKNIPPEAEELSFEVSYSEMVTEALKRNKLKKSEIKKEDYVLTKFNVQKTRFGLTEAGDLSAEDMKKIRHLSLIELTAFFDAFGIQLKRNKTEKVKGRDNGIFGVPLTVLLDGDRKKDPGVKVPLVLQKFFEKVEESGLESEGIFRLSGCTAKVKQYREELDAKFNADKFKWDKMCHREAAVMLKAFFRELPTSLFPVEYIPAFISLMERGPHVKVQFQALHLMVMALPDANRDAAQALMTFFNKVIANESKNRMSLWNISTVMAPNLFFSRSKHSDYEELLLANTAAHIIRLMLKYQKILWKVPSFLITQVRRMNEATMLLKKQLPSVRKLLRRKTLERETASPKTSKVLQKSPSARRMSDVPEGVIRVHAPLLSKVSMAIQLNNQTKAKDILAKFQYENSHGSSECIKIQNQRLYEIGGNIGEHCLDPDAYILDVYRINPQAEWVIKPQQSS

CACNG2 (Homo sapiens) = CACNG2 (Homo sapiens) (UniProt Q9Y698); settings: 5' phosphate; amino-C6 U at position 18; Domain array: 20 mM Tris-HCl pH 7.4, 200 mM KCl, 0.2 mM EDTA, 0.05% NP40, 2 ug/ul heparin, overnight 4 C. ORF array: PBS pH 7.0 with RNase inhibitor, 100 ng RNA, 1 h.; recombinant protein; protein details: N-terminal GST-6xHis; label: internal Cy5 or DY647
NCAPH2 (Homo sapiens) = biological target: T5, NCAPH2 (Homo sapiens) (UniProt Q6IBW4); settings: 5' phosphate; amino-C6 U at position 18; Domain array: 20 mM Tris-HCl pH 7.4, 200 mM KCl, 0.2 mM EDTA, 0.05% NP40, 2 ug/ul heparin, overnight 4 C. ORF array: PBS pH 7.0 with RNase inhibitor, 100 ng RNA, 1 h.; recombinant protein; protein details: N-terminal GST-6xHis; label: internal Cy5 or DY647
T5 sequence (looked up, limits assumed): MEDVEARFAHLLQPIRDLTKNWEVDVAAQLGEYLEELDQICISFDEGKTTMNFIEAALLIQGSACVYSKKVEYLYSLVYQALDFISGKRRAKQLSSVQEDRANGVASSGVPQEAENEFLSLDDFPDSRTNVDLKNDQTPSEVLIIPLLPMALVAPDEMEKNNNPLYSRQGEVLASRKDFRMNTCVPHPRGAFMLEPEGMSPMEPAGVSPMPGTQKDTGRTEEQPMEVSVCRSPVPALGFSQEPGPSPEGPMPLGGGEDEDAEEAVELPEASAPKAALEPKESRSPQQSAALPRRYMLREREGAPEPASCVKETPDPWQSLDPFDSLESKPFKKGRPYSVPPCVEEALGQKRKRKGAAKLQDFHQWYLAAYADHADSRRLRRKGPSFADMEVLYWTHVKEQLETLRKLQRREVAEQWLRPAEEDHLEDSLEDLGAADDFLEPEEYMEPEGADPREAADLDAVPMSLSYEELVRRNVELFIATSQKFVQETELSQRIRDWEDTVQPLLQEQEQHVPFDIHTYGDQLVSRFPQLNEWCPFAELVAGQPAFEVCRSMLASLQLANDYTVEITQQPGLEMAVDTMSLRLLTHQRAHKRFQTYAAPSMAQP

CAMKK2 (Homo sapiens) = CAMKK2 (Homo sapiens) (UniProt Q96RR4); settings: 5' phosphate; amino-C6 U at position 18; Domain array: 20 mM Tris-HCl pH 7.4, 200 mM KCl, 0.2 mM EDTA, 0.05% NP40, 2 ug/ul heparin, overnight 4 C. ORF array: PBS pH 7.0 with RNase inhibitor, 100 ng RNA, 1 h.; recombinant protein; protein details: N-terminal GST-6xHis; label: internal Cy5 or DY647

Measured: binding result

CAGUGCAAUGAUGAAAGGGCAU [miR-130b (internal labeling)]
binds: DNASE1L1 (Homo sapiens) | TMCO5 (Homo sapiens) | HDHD2 (Homo sapiens) | KLHDC3 (Homo sapiens) | VPRBP (Homo sapiens)

UAGCUUAUCAGACUGAUGUUGA [miR-21 (internal labeling)]
binds: ZNF496 (Homo sapiens)

UGAGGUAGUAGGUUGUGUGGUU [let-7b (internal labeling)]
binds: ARHGAP28 (Homo sapiens) | CACNG2 (Homo sapiens) | NCAPH2 (Homo sapiens) | CAMKK2 (Homo sapiens)

The exact form of at least one protein or probe is not confirmed. For some of these results: Where a protein sequence is shown, tags need not be part of it.
